# Test results as given in PubChem BioAssay AID248 (DTP/NCI, 2004).
# The list shows only some results of the screen, not a fair sample: it gathers tests that were run many times, whatever their T/C, doses with no T/C, and many T/C values between a quarter and a half above the control. Other doses and runs of a compound stand elsewhere. T/C is the treated group as % of the vehicle group. Some doses have a count of surviving animals in place of a T/C: the source holds a T/C of zero for them, seemingly a mark for toxic or unscored doses. Some doses without a T/C left all or most animals alive at the check, yet need not have been tolerated: survival well below the control is almost never listed, so the zero probably covers shortened survival too. Survivors were counted at the toxicity check, usually on the fifth day, unless a day is given; later deaths do not show. Schedules are NCI's codes, read here as Q, the interval in days (D) or hours (H), X, the number of doses. Some structures stand for samples that the source files as different forms (salt, stereo form or complex); doses refer to the form tested. Some entries hold several experiments; the values are given in rising order. Where survival is the endpoint, the PubChem record calls one and a half times the control and up active, and a quarter to a half above the control has no call in these data; cut-offs in other NCI protocols can differ. Some T/C values carry the count of animals alive at the toxicity check (mostly the fifth day); where none is given, no animal had died by that day.
# Test system: L1210 leukemia ip in BDF1 mice, survival T/C
# Test: NCI In Vivo Anticancer Drug Screen. Data for tumor model L1210 Leukemia (intraperitoneal) in B6D2F1 (BDF1) mice
# Conditions: T/C endpoint: median survival time, vehicle: saline, higher T/C = longer survival
smiles,measurement,setting,value
NC(C/[N+]([O-])=N/O)C(=O)O (stereo unspecified),T/C,"dose: 16.0 mg/kg/injection, schedule: Q03HX024 (ip)",133 % of control
same,T/C,"dose: 32.0 mg/kg/injection, schedule: Q01DX009 (ip), evaluated on day 60",138 % of control
same,T/C,"dose: 32.0 mg/kg/injection, schedule: Q01DX009 (ip), evaluated on day 62",133 % of control
same,T/C,"dose: 32.0 mg/kg/injection, schedule: Q03HX008 (ip)",133 % of control
same,T/C,"dose: 32.0 mg/kg/injection, schedule: Q03HX016 (ip)",138 % of control
same,T/C,"dose: 32.0 mg/kg/injection, schedule: Q03HX024 (ip)",144 % of control
same,T/C,"dose: 32.0 mg/kg/injection, schedule: Q04DX003 (ip)",133 % of control
same,survivor count,"dose: 64.0 mg/kg/injection, schedule: Q01DX009 (oral)",8 of 10 and 9 of 10
same,T/C,"dose: 64.0 mg/kg/injection, schedule: Q01DX009 (sc)",133 % of control
same,T/C,"dose: 64.0 mg/kg/injection, schedule: Q03HX008 (ip)",144 % of control [9 of 10 alive]
same,T/C,"dose: 64.0 mg/kg/injection, schedule: Q04DX003 (ip)",133 % of control
same,T/C,"dose: 64.0 mg/kg/injection, schedule: Q04DX003 (sc)",133 % of control
same,T/C,"dose: 64.0 mg/kg/injection, schedule: Q08DX002 (ip)",133 % of control
same,T/C,"dose: 128.0 mg/kg/injection, schedule: Q01DX001 (ip)",133 % of control
same,T/C,"dose: 128.0 mg/kg/injection, schedule: Q01DX001 (sc)",133 % of control
same,survivor count,"dose: 128.0 mg/kg/injection, schedule: Q01DX009 (ip)",10 of 10
same,survivor count,"dose: 128.0 mg/kg/injection, schedule: Q01DX009 (oral)",7 of 10
same,survivor count,"dose: 128.0 mg/kg/injection, schedule: Q01DX009 (sc)",9 of 10 and 10 of 10
same,T/C,"dose: 128.0 mg/kg/injection, schedule: Q03HX008 (ip)",144 % of control [9 of 10 alive]
same,T/C,"dose: 128.0 mg/kg/injection, schedule: Q04DX003 (ip), evaluated on day 19",138 % of control
same,T/C,"dose: 128.0 mg/kg/injection, schedule: Q04DX003 (ip), evaluated on day 60",144 % of control
same,T/C,"dose: 128.0 mg/kg/injection, schedule: Q04DX003 (sc)",138 % of control
same,T/C,"dose: 128.0 mg/kg/injection, schedule: Q08DX002 (ip)",133 % of control
same,T/C,"dose: 256.0 mg/kg/injection, schedule: Q01DX001 (ip)",133 % of control
same,T/C,"dose: 256.0 mg/kg/injection, schedule: Q01DX001 (sc)",133 % of control
same,survivor count,"dose: 256.0 mg/kg/injection, schedule: Q01DX009 (ip)",3 of 10
same,survivor count,"dose: 256.0 mg/kg/injection, schedule: Q01DX009 (oral)",3 of 10
same,survivor count,"dose: 256.0 mg/kg/injection, schedule: Q01DX009 (sc)",10 of 10
same,survivor count,"dose: 256.0 mg/kg/injection, schedule: Q03HX008 (ip)",7 of 10
same,T/C,"dose: 256.0 mg/kg/injection, schedule: Q03HX016 (ip)",138 % of control [8 of 10 alive]
same,survivor count,"dose: 256.0 mg/kg/injection, schedule: Q03HX024 (ip)",8 of 10
same,T/C,"dose: 256.0 mg/kg/injection, schedule: Q04DX003 (sc)",127 % of control
same,T/C,"dose: 256.0 mg/kg/injection, schedule: Q08DX002 (ip)",133 % of control
same,T/C,"dose: 256.0 mg/kg/injection, schedule: Q08DX002 (sc)",133 % of control
same,T/C,"dose: 400.0 mg/kg/injection, schedule: Q04DX003 (ip)",133 % of control [5 of 6 alive]
same,T/C,"dose: 512.0 mg/kg/injection, schedule: Q01DX001 (oral)",127 % of control
same,survivor count,"dose: 512.0 mg/kg/injection, schedule: Q01DX009 (ip)",2 of 10
same,survivor count,"dose: 512.0 mg/kg/injection, schedule: Q01DX009 (oral)",3 of 10
same,survivor count,"dose: 512.0 mg/kg/injection, schedule: Q01DX009 (sc)",8 of 10
same,T/C,"dose: 512.0 mg/kg/injection, schedule: Q04DX003 (ip)",127 % of control
same,T/C,"dose: 512.0 mg/kg/injection, schedule: Q04DX003 (oral)",138 % of control [9 of 10 alive]
same,T/C,"dose: 512.0 mg/kg/injection, schedule: Q08DX002 (sc)",144 % of control
same,T/C,"dose: 600.0 mg/kg/injection, schedule: Q04DX003 (ip)",127 and 144 % of control [5 of 6 alive]
same,T/C,"dose: 800.0 mg/kg/injection, schedule: Q04DX003 (ip)",133 and 144 % of control
same,T/C,"dose: 1000.0 mg/kg/injection, schedule: Q04DX003 (ip)",138 % of control
same,T/C,"dose: 1024.0 mg/kg/injection, schedule: Q01DX001 (ip)",133 % of control [9 of 10 alive]
same,survivor count,"dose: 1024.0 mg/kg/injection, schedule: Q01DX009 (ip)",0 of 10
same,survivor count,"dose: 1024.0 mg/kg/injection, schedule: Q01DX009 (oral)",0 of 10
same,survivor count,"dose: 1024.0 mg/kg/injection, schedule: Q01DX009 (sc)",5 of 10
same,T/C,"dose: 1024.0 mg/kg/injection, schedule: Q08DX002 (ip)",144 % of control [9 of 10 alive]
same,T/C,"dose: 1024.0 mg/kg/injection, schedule: Q08DX002 (sc)",144 % of control
